The test relates to primary human hepatic stellate cells (donor 1). In words: percent Bodipy-positive cells; higher = more lipid droplet accumulation. The conditions noted are these: 48 h.
Where [1] appears, read: library stock concentration: 1 mM.
The mark [2] stands for this setting: library stock concentration: 10 mM.
Where [3] appears, read: library stock concentration: 80 uM.
The mark [4] stands for this setting: library stock concentration: 400 uM.
The mark [5] stands for this setting: library stock concentration: 2 mM.
[6] abbreviates: library stock concentration: 3.33 mM.

The source of these data is the supplement of paper PMC9135407.

“And” between values parts separate entries of the source, which are not always exact repeats. Equal values may be shown once. Where a name gives a salt, the structure may show the parent alone. ± gives the standard deviation of the averaged measurements. This is one part of the list. Baselines shift from plate to plate; read single values as rough.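 Primary human stellate myofibroblasts activated in culture; inactivation shown by regained lipid droplets. Readout: fraction of Hoechst-counted cells exceeding a per-plate Bodipy threshold, duplicate wells, each plate with DMSO negative and nortriptyline positive controls. Hits: control-normalized score beyond the plate's top-tenth-percentile nortriptyline wells, or among its three best wells. Final well concentrations unstated.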

Consider `CCOC(=O)C(C)(C)Oc1ccc(Cl)cc1` [Clofibrate], for which the “percent Bodipy-positive cells” value under setting [1] is 21.9 ± 3.4% and the “percent Bodipy-positive cells” value under setting [2] came out at 36.4 ± 0.72%. With `O=c1cc(N2CCOCC2)oc2c1ccc1ccccc12`, the “percent Bodipy-positive cells” value by setting is: under setting [3], 8.22 ± 3%; under setting [4], 9.92 ± 4.1%; under setting [5], 17.9 ± 16%; under setting [2], 7.58% and 5.39%. `O=c1cc(N2CCOCC2)oc2c1ccc1ccccc12` [DNA-PK Inhibitor II]: the “percent Bodipy-positive cells” value under setting [6] is 8.34 ± 2.4%. As to `c1cnc2c(c1)ccc1cccnc12` [1,10-Phenanthroline monohydrate], the “percent Bodipy-positive cells” value under setting [2] was determined as 41.3 ± 1.6%.

`CC(C)NC[C@H](O)COc1ccc(CC(N)=O)cc1` [S-(-)-Atenolol]: the “percent Bodipy-positive cells” value under setting [2] came to 5.55 ± 0.65%. Turning to `CC(C)NC[C@H](O)COc1ccc(CC(N)=O)cc1` [(S)-(-)-Atenolol], the “percent Bodipy-positive cells” value was found to be 34.5 ± 2.6%. As to `CC(C)NC[C@H](O)COc1ccc(CC(N)=O)cc1` [S(-)-Atenolol], the “percent Bodipy-positive cells” value under setting [2] amounted to 42.9 ± 7.6%. On to `CC(C)OC(=O)CCC/C=C/C[C@@H]1[C@@H](/C=C/[C@H](O)CCc2ccccc2)[C@H](O)C[C@@H]1O`, for which the “percent Bodipy-positive cells” value under setting [1] came to 20.9 ± 5.7%. As to `CO[C@@]1(NC(=O)CSCC#N)C(=O)N2C(C(=O)O)=C(CSc3nnnn3C)CS[C@@H]21` [Cefmetazole sodium salt], the “percent Bodipy-positive cells” value stood at 7.95 ± 1.7%. For the molecule `CO[C@@]1(NC(=O)CSCC#N)C(=O)N2C(C(=O)O)=C(CSc3nnnn3C)CS[C@@H]21` [Cefmetazole sodium], under setting [2], the “percent Bodipy-positive cells” value was 34.4% and 25.6%. `C[C@@H]1[C@H](O)[C@@H](C)/C=C/C=C/C=C/C=C/C=C/C=C/C=C/[C@H](O[C@@H]2O[C@H](C)[C@@H](O)[C@H](N)[C@@H]2O)C[C@@H]2O[C@](O)(C[C@@H](O)C[C@@H](O)[C@H](O)CC[C@@H](O)C[C@@H](O)CC(=O)O[C@H]1C)C[C@H](O)[C@H]2C(=O)O` [Amphotericin b]: the “percent Bodipy-positive cells” value under setting [2] amounted to 11.7 ± 1.8%. Take `C[C@@H]1[C@H](O)[C@@H](C)/C=C/C=C/C=C/C=C/C=C/C=C/C=C/[C@H](O[C@@H]2O[C@H](C)[C@@H](O)[C@H](N)[C@@H]2O)C[C@@H]2O[C@](O)(C[C@@H](O)C[C@@H](O)[C@H](O)CC[C@@H](O)C[C@@H](O)CC(=O)O[C@H]1C)C[C@H](O)[C@H]2C(=O)O` [Amphotericin B]: the “percent Bodipy-positive cells” value amounted to 21.2 ± 7.8%. Also, under setting [6], the “percent Bodipy-positive cells” value was determined as 5.39 ± 3.3%. For the same molecule, the “percent Bodipy-positive cells” value under setting [2] amounted to 10.3 ± 0.14%.

As for `CN(C)CC(C)(C)CNc1nn2c(-c3ccccc3)nnc2cc1C1CCC1`, the “percent Bodipy-positive cells” value stood at 23.7 ± 5.9% under setting [4], 27.1 ± 5.5% under setting [5] and 45.5 ± 4.3% under setting [2]. As to `COc1ccc2[nH]c(I)c(CCNC(C)=O)c2c1` [2-Iodomelatonin], the “percent Bodipy-positive cells” value under setting [2] worked out at 6.62 ± 0.6%. Same read-out and setting: under `CC(C)c1ccc2c(c1)c(SC(C)(C)C)c(CC(C)(C)C(=O)O)n2Cc1ccc(Cl)cc1` stands 20.7% and 44.1%. As to `CC(C)c1ccc2c(c1)c(SC(C)(C)C)c(CC(C)(C)C(=O)O)n2Cc1ccc(Cl)cc1` [MK 886 (sodium salt)], under setting [1], the “percent Bodipy-positive cells” value amounted to 11.3 ± 1.9%. Same read-out and setting: with `CC(C)CCOc1ccc(N)cc1` [CP 24,879 (hydrochloride)] the figure was 33 ± 20%. Consider `Cc1cc(Nc2nc(N[C@@H](C)c3ccc(F)cc3)c(C#N)cc2F)n[nH]1`, for which the “percent Bodipy-positive cells” value by setting is: under setting [4], 14.4 ± 0.82%; under setting [5], 23.2 ± 13%; under setting [6], 22.5 ± 5.1%; under setting [2], 78.7% and 68.2%. Take `CC(/C=C/C(=O)NO)=C\[C@@H](C)C(=O)c1ccc(N(C)C)cc1` [Trichostatin-A]: where the note is “library stock concentration: 16.5 mM”, the “percent Bodipy-positive cells” value stood at 67 ± 4.8%. As to `COc1cc(N2CCC(N3CCN(C)CC3)CC2)ccc1Nc1ncnc(Nc2ccccc2S(=O)(=O)C(C)C)n1`, the “percent Bodipy-positive cells” value was 8.77 ± 3.6% under setting [3], 10.1 ± 1.2% under setting [4], 31 ± 1.8% under setting [5] and 59.5 ± 10% under setting [2]. Consider `CCN(CCO)CCCC(C)Nc1ccnc2cc(Cl)ccc12` (centres undefined) [Hydroxychloroquine sulfate], for which the “percent Bodipy-positive cells” value under setting [2] worked out at 46.6 ± 2.5%. With `Cc1nc(Nc2ncc(C(=O)Nc3c(C)cccc3Cl)s2)cc(N2CCN(CCO)CC2)n1` [Dasatinib], the “percent Bodipy-positive cells” value reads like this: under setting [3], 12.8 ± 4.6%; under setting [4], 29.6 ± 2.3%; under setting [5], 63.5 ± 10%; under setting [6], 56.6 ± 12%; under setting [2], 91% and 80.9%. With `Cc1nc(Nc2ncc(C(=O)Nc3c(C)cccc3Cl)s2)cc(N2CCN(CCO)CC2)n1`, the “percent Bodipy-positive cells” value reads like this: under setting [4], 66.7 ± 18%; under setting [2], 87.4 ± 1.1%.

For the molecule `CCN1CCN(Cc2ccc(-c3cc4c(N[C@H](C)c5ccccc5)ncnc4[nH]3)cc2)CC1`, the “percent Bodipy-positive cells” value reads like this: under setting [6], 70.7 ± 3.3%; under setting [2], 91.9 ± 3.4%.

Regarding `CCOC(=O)c1c(CSc2ccccc2)n(C)c2cc(Br)c(O)c(CN(C)C)c12` [Arbidol HCl], the “percent Bodipy-positive cells” value is, setting by setting: under setting [6], 24.6 ± 9.3%; under setting [2], 71.8 ± 12%. `CN(C)c1ccc(C(=C2C=CC(=[N+](C)C)C=C2)c2ccc(N(C)C)cc2)cc1` [Gentian violet]: the “percent Bodipy-positive cells” value (library stock concentration: 4.9 mM) was 84 ± 3.9% and the “percent Bodipy-positive cells” value under setting [2] worked out at 19.7 ± 11%. As to `CN(C)c1ccc(C(=C2C=CC(=[N+](C)C)C=C2)c2ccc(N(C)C)cc2)cc1` [Crystal Violet], the “percent Bodipy-positive cells” value under setting [6] came out at 19.5 ± 4.1% and the “percent Bodipy-positive cells” value under setting [2] is 88.7 ± 2.9%.

Turning to `COc1ccc(CC2c3cc(OC)c(OC)cc3CC[N+]2(C)CCC(=O)OCCCCCOC(=O)CC[N+]2(C)CCc3cc(OC)c(OC)cc3C2Cc2ccc(OC)c(OC)c2)cc1OC` (centres undefined) [Atracurium Besylate], the “percent Bodipy-positive cells” value was 9.65 ± 7.6% under setting [6] and 32.5 ± 3.6% under setting [2]. Consider `COc1ccc(CC2c3cc(OC)c(OC)cc3CC[N+]2(C)CCC(=O)OCCCCCOC(=O)CC[N+]2(C)CCc3cc(OC)c(OC)cc3C2Cc2ccc(OC)c(OC)c2)cc1OC` (centres undefined), for which, under setting [2], the “percent Bodipy-positive cells” value worked out at 14.3 ± 1.6%. `COc1ccc(CC2c3cc(OC)c(OC)cc3CC[N+]2(C)CCC(=O)OCCCCCOC(=O)CC[N+]2(C)CCc3cc(OC)c(OC)cc3C2Cc2ccc(OC)c(OC)c2)cc1OC` (centres undefined) [Atracurium besylate]: the “percent Bodipy-positive cells” value turned out to be 36.6 ± 13%.
